Data on one compound can be found in PubChem BioAssay (Tox21).

Only a part is listed here, and it is no random draw. Inconclusive results are not listed. A structure can be active in one record and inactive in another. Activity calls are given as the source filed them. Calls follow the shape of the full dose curve.

A short description of the experiment: p53 small molecule agonists, cell-based qHTS assay with human liver microsomes: qHTS cell viability counter screen (AID 1963579). Also: nearly all actives have a fitted effect of over 45% in size. The following applies: p53RE-bla HCT-116 viability, ATP luminescence, 16 h, HLM. An outline of the steps:
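Tox21 library compounds, delivered from DMSO stocks, were tested on p53RE-bla cells together with 0.5 mg/mL human liver microsomes and 0.5 mg/mL NADPH (final) over 16 h at 37 C; CellTiter-Glo luminescence served as the cytotoxicity measure.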
Potency is read from the fitted curve at half-maximal effect.

On to `CCCCCCCCCC(CC)c1ccc(S(=O)(=O)O)cc1` (stereo unspecified), for which the Potency is active: 45.8 µM.
